Values quoted from earlier work as cited in article PMC4965013, “Open Source Drug Discovery with the Malaria Box Compound Collection for Neglected Diseases and Beyond” (PLoS Pathogens, 2016).
Several values for one entry are separate records, joined by “and”; a condition that tells them apart may be missing. Identical values can stand only once.

System: T. cruzi Tulahuen
Details: Run 1 and Run 2; ref [88]; read-out: T. cruzi IC50 positive control; cited from earlier work

SMILES: O=C(Cn1ccnc1[N+](=O)[O-])NCc1ccccc1 [Benznidazole, reference compound]
- IC50: 3.22 µM and 3.06 µM
